Data published in patent US9701628B2, “12-epi pleuromutilins” (NABRIVA THERAPEUTICS AG, priority 2014, dated 2017).
Some results were stated once for a whole list of compounds, not compound by compound. At least one structure is not confirmed: it was looked up by name or label, or the drawing left a doubt.

Test system: Escherichia coli ATCC25922
Assay: MIC by broth microdilution (CLSI) against Escherichia coli ATCC 25922
Format: cell-based
Conditions: Escherichia coli ATCC25922, in vitro
Description: The in vitro activity against aerobic bacteria was determined by Broth Microdilution Test according to the Clinical and Laboratory Standards Institute (CLSI, former NCCLS) Document M7-A9 Vol 32, No 2 “Methods for Dilution Antimicrobial Susceptibility Tests for Bacteria that Grow Aerobically; Approved Standard—Ninth Edition (2012)”; and the test against anaerobic bacteria was performed by Agar Dilution Test according to the Clinical and Laboratory Standards Institute (CLSI, former NCCLS), Document, M11-A8, Vol. 32, No. 5: “Methods for Antimicrobial Susceptibility Testing of Anaerobic Bacteria; Approved Standard—Eighth Edition (2012)”. Performance standards and interpretive criteria followed the CLSI Document, M100-S23: “Performance Standards for Antimicrobial Susceptibility Testing; Twenty-Third Informational Supplement” (2013). The in vivo activity was tested by the septicaemia mouse model against Staphylococcus aureus and Escherichia coli.
The antibacterial activity expressed as minimal inhibitory concentration (MIC) was determined according to the approved standard reference recommendations of CLSI (former NCCLS) as described in the description of the application.

**Q.** `C=C[C@]1(C)C[C@@H](OC(=O)CSC(C)(C)CNC(=O)[C@H](N)C(C)C)[C@]2(C)[C@H](C)CC[C@]3(CCC(=O)[C@H]32)[C@@H](C)[C@@H]1O` [Econor, econor, reference compound] was tested. Which MIC (listed as econor) did it give?
**A.** > 16 µg/mL

**Q.** For `C=C[C@]1(C)C[C@@H](OC(=O)CSCCN(CC)CC)[C@]2(C)[C@H](C)CC[C@]3(CCC(=O)[C@H]32)[C@@H](C)[C@@H]1O` [Tiamulin, tiamulin, reference compound], which MIC is on record?
**A.** > 16 µg/mL
